Data from the supplement of paper PMC12889115.
The other results are listed elsewhere or left out. Values are raw readings; no control value is given beside them.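 First-pass screen: polymyxin B was added at a level that permeabilizes the Salmonella outer membrane while sparing the inner membrane. DMSO wells, with and without polymyxin B, defined maximum growth. Because plates differed from one another, each plate's data were ranked separately and the compounds with the lowest OD600 were carried forward as hits.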

Test system: Salmonella enterica serovar Typhimurium SL1344
Test: bacterial growth OD600 after 18 h with compound and polymyxin B; higher = more bacterial growth (less inhibition)
Settings: 50 µM, Mueller-Hinton broth

Row | SMILES | bacterial growth OD600 (polymyxin B 1 µg/mL) | bacterial growth OD600 (polymyxin B 0.75 µg/mL)
1 | c1cc(CN(CCN2CCCCC2)CC2CCCN(C3CCCC3)C2)c2nonc2c1 (stereo unspecified) | 0.958 | 
2 | COCCN1CCN(C(=O)CC(c2ccccc2)c2ccc(Cl)cc2)CC1 (stereo unspecified) | 0.896 | 
3 | CC(C)=CCN1CCN(Cc2cccc(F)c2)CC1CCO (stereo unspecified) | 0.922 | 
4 | CC#CCN1C(=O)NC(CCc2ccccc2)(C2CCN(Cc3ccccc3-c3ccco3)CC2)C1=O (stereo unspecified) |  | 0.796
5 | COc1ccc(-n2cc(CNC(C)C)c(-c3ccccc3Cl)n2)cc1 | 0.831 | 
6 | CN(CCc1ccccc1)C(=O)C1CCCN(C2CCN(C(=O)C3CC3)CC2)C1 (stereo unspecified) |  | 0.744
7 | CCOC(=O)C1(CCCc2ccccc2)CCN(Cc2ccncc2)CC1 | 0.013 | 
8 | CN1C(=O)CC(CC(=O)N2CCC(c3ccc(F)cc3)C2)(c2ccc(-c3ccccc3)cc2)C1=O (stereo unspecified) |  | 0.012
9 | COc1cc(CN2Cc3cc(C)ccc3OC(c3ccsc3)C2)cc(OC)c1OC (stereo unspecified) |  | 0.04
10 | Cc1occc1C(=O)N(C)C(Cc1ccccc1F)C1CCN(C(=O)[C@H]2C[C@@H]3C=C[C@H]2C3)CC1 (stereo partly specified) |  | 0.005
11 | CCn1c(-c2ccccc2F)nc2cc(C(=O)N3CCC(OC)CC3)cc(NC(C)=O)c21 |  | 1.05
12 | COC(=O)CCC(=O)N1CCCC(C(=O)c2ccc(Oc3ccccc3)cc2)C1 (stereo unspecified) | 0.662 | 
13 | Cc1nc(N2CCCC(NCc3cccs3)CC2)nc2ccc(F)cc12 (stereo unspecified) |  | 0.769
14 | Cc1cccnc1-c1cccc2c1OC(CNC(=O)C1CC1)C2 (stereo unspecified) |  | 0.844
15 | O=C1CC(NS(=O)(=O)N2CCCC2)CN1CCc1ccccc1 (stereo unspecified) | 0.933 | 
16 | CN(CCOc1ccccc1)C(=O)c1cc(COc2c(F)cccc2F)on1 | 0.741 | 

Row | SMILES | bacterial growth OD600 (polymyxin B 1 µg/mL) | bacterial growth OD600 (polymyxin B 0.75 µg/mL)
17 | C=C(C)CNC(=O)c1cc(COc2cc(C)c(Cl)c(C)c2)on1 |  | 0.111
18 | COc1cc(CNC(=O)C2CCCN(c3nc(C)c4ccc(S(C)(=O)=O)cc4n3)C2)cc(OC)c1 (stereo unspecified) |  | 0.926
19 | COCc1ccc(CN2CCCC(C(=O)Nc3ccccc3-c3ccc(OC)cc3)C2)o1 (stereo unspecified) | 0.015 | 
20 | CCOC(=O)C1(CCOc2ccccc2)CCCN(C2CCOCC2)C1 (stereo unspecified) | 0.41 | 
21 | O=C(NCC1CCCN(C2CCSCC2)C1)c1cccc(C(F)(F)F)c1 (stereo unspecified) |  | 0.879
22 | CC(C)n1cc(C(=O)NCC2CCCCC2)c(=O)c(C(=O)N(C)Cc2cccs2)c1 |  | 0.895
23 | COC(=O)[C@@H](NC(=O)c1cc(COc2ccc(C)c(C)c2)on1)C(C)C |  | 0.578
24 | O=C(Cn1cccn1)N1CCCC(CCc2c(F)cccc2F)C1 (stereo unspecified) |  | 0.776
25 | Cn1nccc1C(=O)NC1CCCc2nc(-c3ccccc3)ncc21 (stereo unspecified) | 0.928 | 
26 | Cc1oc(-c2ccc(NC(=O)Cc3ccccc3)cc2)nc1CNC(=O)c1cc(-c2ccccc2)no1 |  | 0.904
27 | CCOc1cccc(CN2CCC(Oc3cc(OC)ccc3C(=O)NCCOC)CC2)c1 | 1.02 | 
28 | COCC(=O)Nc1cc(C(=O)NCCCc2cccnc2)cc2ncn(CCc3ccccc3)c12 |  | 0.986
29 | COc1ccc(-c2n[nH]cc2CNCCCOc2cccnc2)cc1F | 0.838 | 
30 | COc1ccc(CN(C)C(=O)c2cn(Cc3c(F)cccc3F)nn2)cc1OC | 0.929 | 
31 | c1cc(CNCc2ccc3[nH]c4c(c3c2)CCCCCC4)ccn1 |  | 0.877

Sorted by length of the SMILES (rising): some entries from above.
Row | SMILES | bacterial growth OD600 (polymyxin B 1 µg/mL) | bacterial growth OD600 (polymyxin B 0.75 µg/mL)
24 | O=C(Cn1cccn1)N1CCCC(CCc2c(F)cccc2F)C1 (stereo unspecified) |  | 0.776
29 | COc1ccc(-c2n[nH]cc2CNCCCOc2cccnc2)cc1F | 0.838 | 
25 | Cn1nccc1C(=O)NC1CCCc2nc(-c3ccccc3)ncc21 (stereo unspecified) | 0.928 | 
17 | C=C(C)CNC(=O)c1cc(COc2cc(C)c(Cl)c(C)c2)on1 |  | 0.111
21 | O=C(NCC1CCCN(C2CCSCC2)C1)c1cccc(C(F)(F)F)c1 (stereo unspecified) |  | 0.879
19 | COCc1ccc(CN2CCCC(C(=O)Nc3ccccc3-c3ccc(OC)cc3)C2)o1 (stereo unspecified) | 0.015 | 
23 | COC(=O)[C@@H](NC(=O)c1cc(COc2ccc(C)c(C)c2)on1)C(C)C |  | 0.578
28 | COCC(=O)Nc1cc(C(=O)NCCCc2cccnc2)cc2ncn(CCc3ccccc3)c12 |  | 0.986
18 | COc1cc(CNC(=O)C2CCCN(c3nc(C)c4ccc(S(C)(=O)=O)cc4n3)C2)cc(OC)c1 (stereo unspecified) |  | 0.926
